Series [1] deals with PCBP1 (endogenous, macrophage whole cell lysate) (UniProt P60335). The series can be described thus: competition with a labelled probe. The settings on record: unlabelled mt CRE 10 uM vs 200 nM WT CRE probe (legend says five-fold excess); Macrophage lysate EMSA: 50 mM Tris-HCl pH 7.4, 150 mM NaCl, 100 U/ml RNasin, 4 ug lysate in 20 ul, on ice 30 min, 6% PAGE; protein in an extract; label: none (unlabelled competitor).

Amino acid sequences for entries named in this document (tags omitted).
UniProt P60335, whole entry: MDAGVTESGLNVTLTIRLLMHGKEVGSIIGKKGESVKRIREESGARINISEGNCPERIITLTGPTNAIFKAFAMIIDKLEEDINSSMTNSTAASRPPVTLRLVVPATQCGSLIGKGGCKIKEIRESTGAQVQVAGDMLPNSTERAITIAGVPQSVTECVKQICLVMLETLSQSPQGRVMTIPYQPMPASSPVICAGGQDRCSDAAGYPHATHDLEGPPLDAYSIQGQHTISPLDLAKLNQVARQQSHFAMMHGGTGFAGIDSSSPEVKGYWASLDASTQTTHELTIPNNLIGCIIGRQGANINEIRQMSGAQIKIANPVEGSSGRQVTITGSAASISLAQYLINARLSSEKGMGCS

For series [2] the target is unchanged. In words: EMSA supershift. The settings on record: anti-PCBP1, probe 200 nM, self-competed by excess unlabelled WT CRE; Macrophage lysate EMSA: 50 mM Tris-HCl pH 7.4, 150 mM NaCl, 100 U/ml RNasin, 4 ug lysate in 20 ul, on ice 30 min, 6% PAGE; protein in an extract.

Construct, isoform or probe ends are uncertain for at least one entry. Where cells or extracts were used, other partners may take part. For some assays here: A negative result means that nothing was seen under these conditions.

In the case of CAUGUGGAAAAUAAAAAGGCUGU [mt CRE], the binding result in series [1] was “no binding”. Turning to CAUGUGGCCCCUCCCCCGGCUGU [WT CRE], the binding result in series [2] is reported as “binds”.

Source of the values: paper PMC4879639.
